The target in assay [1] is recombinant N-terminal 610 amino acids Huntingtin fragment recHTT610 (human) (UniProt P42858). Put plainly: recHTT610 protein capture ELISA, Huntingtin-specific OD signal against control extract.
The target is the same in assay [2]. Put plainly: recHTT610 capture ELISA.
Assay [3] shares this target. Kind of assay: recHTT610 protein capture ELISA.

Chains of the proteins cited; added tags and fusions are not shown. Residues count along the entry.
UniProt P42858, residues 1-610: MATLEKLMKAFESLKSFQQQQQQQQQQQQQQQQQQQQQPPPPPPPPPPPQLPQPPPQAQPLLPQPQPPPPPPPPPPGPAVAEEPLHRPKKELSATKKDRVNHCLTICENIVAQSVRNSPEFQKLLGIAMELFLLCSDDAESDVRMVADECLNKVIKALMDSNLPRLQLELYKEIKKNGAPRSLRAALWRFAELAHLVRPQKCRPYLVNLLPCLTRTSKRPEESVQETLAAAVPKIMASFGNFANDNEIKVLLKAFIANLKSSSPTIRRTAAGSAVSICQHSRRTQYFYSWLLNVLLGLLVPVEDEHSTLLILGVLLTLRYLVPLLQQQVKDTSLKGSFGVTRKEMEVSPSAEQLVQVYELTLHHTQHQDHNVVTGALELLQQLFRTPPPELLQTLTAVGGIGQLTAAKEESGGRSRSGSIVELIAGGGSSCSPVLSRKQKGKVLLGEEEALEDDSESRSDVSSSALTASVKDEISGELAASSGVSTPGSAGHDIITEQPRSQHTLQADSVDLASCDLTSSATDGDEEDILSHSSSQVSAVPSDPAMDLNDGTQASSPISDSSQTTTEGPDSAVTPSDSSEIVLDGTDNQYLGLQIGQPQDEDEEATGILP

These are yes or no findings as the source states them, for the method shown. Some results given as binding are weak or reduced against the parent protein; the word gives no strength.

B1: monoclonal antibody C6-17 (antibody, mouse IgG2a, V domains shown)
VH: EVQLQQSGPELVKPGASVKISCKTSGYTFTEYTMHWVKQSHGKSLEWIGGINPNNGGTRYNQKFKGKATLTVDRSSSTAYMELRSLTSEDSAVYYCASLDGRDYWGQGTTLTVSS
VL: DIVMSQSPSSLAVSAGEKVTMSCKSSQSLLNSRTRKNYLAWYQQKPGQSPKLLIYWASTRESGVPDRFTGSGSGTDFTLTISSVQAEDLAVYSCKQSYNLLTFGAGTKLELKR
B1: in assay [1], the binding result is recorded as “binds”.

B2: monoclonal antibody PRR13 (antibody, mouse IgG2a, V domains shown)
VH: EVQLQQSAPELVKPGASVKMSCKASGYSFTDFYMKWVKQSHGKGLEWIGDIDPKNGDTFYNQKFKGRATLTVDKSSSTAYMQLNSLTTEDSAVYYCATYYGYTMDYWGQGTSVTVSS
VL: QIVLTQSPAIMSASLGERVTMTCTASSSVTSSYLHWYQQKPGSSPKLWIYSTSNLASGVPARFSGSGSGTSYSLTISSMEAEDAATYYCHQYRRPPRTFGGGTKLEIKR
Consider B2, for which the binding entry in assay [2] and in assay [3] was “binds” each time.

The values above are taken from patent US20170304384A1.
